Measured values taken from patent publication US9560850B2, “Tetrazolinone compound and use thereof” (SUMITOMO CHEMICAL COMPANY, LIMITED, priority 2012, dated 2017).
Where two headings read alike, the source gives them in different places. Some of these results come from one statement about several compounds together.

What was measured:
Puccinia recondita = assay: Wheat rust control test, foliar spray on wheat (Test Examples 2, 8); format: in vivo; conditions: wheat (Shirogane), inoculated 5 days after application
Magnaporthe grisea = format: in vivo; conditions: rice (Nipponbare), foliar spray, examined after 6 days contact with infected seedlings

SMILES	infected area of the treated plant relative to that of the untreated plant (Puccinia recondita; Test Example 2, 500 ppm) [%]	infected area of the treated plant relative to that of the untreated plant (Puccinia recondita; Test Example 8, 200 ppm) [%]	infected area of the treated plant relative to that of the untreated plant (Magnaporthe grisea; Test Example 1, 500 ppm) [%]	infected area of the treated plant relative to that of the untreated plant (Magnaporthe grisea; Test Example 7, 200 ppm) [%]
CCC(=NOC)c1ccc(OCc2c(OC)cccc2-n2nnn(C)c2=O)c(C)c1 [Compound 57, 1-{2-[2-methyl-4-(1-methoxyimino-propyl)-phenoxymethyl]-3-methoxy-phenyl}-4-methyl-1,4-dihydrotetrazol-5-one]	≤ 30	≤ 30	–	–
CCON=C(C)c1ccc(OCc2c(OC)cccc2-n2nnn(C)c2=O)c(C)c1 [Compound 7, 1-{2-[2-methyl-4-(1-ethoxyimino-ethyl)-phenoxymethyl]-3-methoxy-phenyl}-4-methyl-1,4-dihydrotetrazol-5-one]	≤ 30	–	≤ 30	≤ 30
CON=C(CC(C)(C)C)c1ccc(OCc2c(C3CC3)cccc2-n2nnn(C)c2=O)c(C)c1 [Compound 61, 1-{2-[2-bromo-4-(1-methoxyimino-3,3-dimethyl-butyl)-phenoxymethyl]-3-cyclopropyl-phenyl}-4-methyl-1,4-dihydrotetrazol-5-one]	≤ 30	≤ 30	–	–
CON=C(c1ccc(OCc2c(C3CC3)cccc2-n2nnn(C)c2=O)c(C)c1)C1CC1 [Compound 55, 1-{2-[2-methyl-4-(1-methoxyimino-1-cyclopropyl-methyl)-phenoxymethyl]-3-cyclopropyl-phenyl}-4-methyl-1,4-dihydrotetrazol-5-one]	≤ 30	≤ 30	–	–
CON=C(CC(C)(C)C)c1ccc(OCc2c(C)cccc2-n2nnn(C)c2=O)c(C)c1 [Compound 59, 1-{2-[2-bromo-4-(1-methoxyimino-3,3-dimethyl-butyl)-phenoxymethyl]-3-methyl-phenyl}-4-methyl-1,4-dihydrotetrazol-5-one]	≤ 30	≤ 30	–	–
CON=C(c1ccc(OCc2c(OC)cccc2-n2nnn(C)c2=O)c(C)c1)C1CC1 [Compound 54, 1-{2-[2-methyl-4-(1-methoxyimino-1-cyclopropyl-methyl)-phenoxymethyl]-3-methoxy-phenyl}-4-methyl-1,4-dihydrotetrazol-5-one]	≤ 30	≤ 30	–	–
CCC(=NOC)c1ccc(OCc2c(C)cccc2-n2nnn(C)c2=O)c(C)c1 [Compound 56, 1-{2-[2-methyl-4-(1-methoxyimino-propyl)-phenoxymethyl]-3-methyl-phenyl}-4-methyl-1,4-dihydrotetrazol-5-one]	≤ 30	≤ 30	–	–
CON=C(c1ccc(OCc2c(C)cccc2-n2nnn(C)c2=O)c(C)c1)C(C)C [Compound 63, 1-{2-[2-methyl-4-(1-methoxyimino-2-methyl-propyl)-phenoxymethyl]-3-methyl-phenyl}-4-methyl-1,4-dihydrotetrazol-5-one]	≤ 30	≤ 30	–	–
CON=C(C)c1cc(C)c(OCc2c(C)cccc2-n2nnn(C)c2=O)cc1C [Compound 48, 1-{2-[2,5-dimethyl-4-(1-methoxyimino-ethyl)-phenoxymethyl]-3-methyl-phenyl}-4-methyl-1,4-dihydrotetrazol-5-one]	≤ 30	–	≤ 30	≤ 30
CON=C(C)c1ccc(OCc2c(C3CC3)cccc2-n2nnn(C)c2=O)c(C)c1 [Compound 13, 1-{2-[2-methyl-4-(1-methoxyimino-ethyl)-phenoxymethyl]-3-cyclopropyl-phenyl}-4-methyl-1,4-dihydrotetrazol-5-one]	≤ 30	–	≤ 30	≤ 30
C#CCON=C(C)c1ccc(OCc2c(C)cccc2-n2nnn(C)c2=O)c(C)c1 [Compound 30, 1-{2-[2-methyl-4-(1-propargyloxyimino-ethyl)-phenoxymethyl]-3-methyl-phenyl}-4-methyl-1,4-dihydrotetrazol-5-one]	≤ 30	–	≤ 30	≤ 30
C=CCON=C(C)c1ccc(OCc2c(C)cccc2-n2nnn(C)c2=O)c(C)c1 [Compound 17, 1-{2-[2-methyl-4-{1-(2-allyloxy)imino-ethyl)-phenoxymethyl]-3-methyl-phenyl}-4-methyl-1,4-dihydrotetrazol-5-one]	≤ 30	–	≤ 30	≤ 30
CON=C(C)c1ccc(OCc2c(OC)cccc2-n2nnn(C)c2=O)c(C)c1 [Compound 6, 1-{2-[2-methyl-4-(1-methoxyimino-ethyl)-phenoxymethyl]-3-methoxy-phenyl}-4-methyl-1,4-dihydrotetrazol-5-one]	≤ 30	–	≤ 30	≤ 30
CON=C(C)c1ccc(OCc2c(Cl)cccc2-n2nnn(C)c2=O)c(C)c1 [Compound 4, 1-{2-[2-methyl-4-(1-methoxyimino-ethyl)phenoxymethyl]-3-chlorophenyl}-4-methyl-1,4-dihydrotetrazol-5-one]	≤ 30	–	≤ 30	≤ 30
CCc1cccc(-n2nnn(C)c2=O)c1COc1ccc(C(C)=NOC)cc1C [Compound 12, 1-{2-[2-methyl-4-(1-methoxyimino-ethyl)-phenoxymethyl]-3-ethyl-phenyl}-4-methyl-1,4-dihydrotetrazol-5-one]	≤ 30	–	≤ 30	≤ 30
CON=C(c1ccc(OCc2c(C3CC3)cccc2-n2nnn(C)c2=O)c(C)c1)C(C)C [Compound 65, 1-{2-[2-methyl-4-(1-methoxyimino-2-methyl-propyl)-phenoxymethyl]-3-cyclohexyl-phenyl}-4-methyl-1,4-dihydrotetrazol-5-one]	≤ 30	≤ 30	–	–
CON=C(C)c1ccc(OCc2c(Br)cccc2-n2nnn(C)c2=O)c(C)c1 [Compound 43, 1-{2-[2-methyl-4-(1-methoxyimino-ethyl)phenoxymethyl]-3-bromo-phenyl}-4-methyl-1,4-dihydrotetrazol-5-one]	≤ 30	–	≤ 30	≤ 30
CCON=C(C)c1ccc(OCc2c(C)cccc2-n2nnn(C)c2=O)c(C)c1 [Compound 3, 1-{2-[2-methyl-4-(1-ethoxyimino-ethyl)phenoxymethyl]-phenyl}-4-methyl-1,4-dihydrotetrazol-5-one]	≤ 30	–	≤ 30	≤ 30
CON=C(c1ccc(OCc2c(C)cccc2-n2nnn(C)c2=O)c(C)c1)C1CC1 [Compound 53, 1-{2-[2-methyl-4-(1-methoxyimino-1-cyclopropyl-methyl)-phenoxymethyl]-3-methyl-phenyl}-4-methyl-1,4-dihydrotetrazol-5-one]	≤ 30	≤ 30	–	–
CON=C(C)c1ccc(OCc2c(C)cccc2-n2nnn(C)c2=O)c(C)c1 [Compound 2, 1-{2-[2-methyl-4-(1-methoxyimino-ethyl)-phenoxymethyl]-3-methyl-phenyl}-4-methyl-1,4-dihydrotetrazol-5-one]	≤ 30	–	≤ 30	≤ 30
CCC(=NOC)c1ccc(OCc2c(C3CC3)cccc2-n2nnn(C)c2=O)c(C)c1 [Compound 58, 1-{2-[2-methyl-4-(1-methoxyimino-propyl)-phenoxymethyl]-3-cyclopropyl-phenyl}-4-methyl-1,4-dihydrotetrazol-5-one]	≤ 30	≤ 30	–	–
CON=C(c1ccccc1)c1ccc(OCc2c(C)cccc2-n2nnn(C)c2=O)c(C)c1 [Compound 62, 1-{2-[2-methyl-4-(1-methoxyimino-1-phenyl-methyl)-phenoxymethyl]-3-methyl-phenyl}-4-methyl-1,4-dihydrotetrazol-5-one]	≤ 30	≤ 30	–	–
CON=C(c1ccc(OCc2c(OC)cccc2-n2nnn(C)c2=O)c(C)c1)C(C)C [Compound 64, 1-{2-[2-methyl-4-(1-methoxyimino-2-methyl-propyl)-phenoxymethyl]-3-methoxy-phenyl}-4-methyl-1,4-dihydrotetrazol-5-one]	≤ 30	≤ 30	–	–
